At least one structure is not confirmed: it was looked up by name or label, or the drawing left a doubt.
Test system: calf thymus DNA
Assay: Fluorescence emission spectra in the absence and presence of calf thymus DNA in buffer solution
Type: binding
Conditions: dye 1 μM, calf thymus DNA 100 μM
Description: (§1) FIG. 1 is the comparison of fluorescence emission spectra of compound A with commercially available dye EB in the absence and presence of calf thymus DNA respectively in pH 7.36, 10 mM Tris-HCl buffer. The abscissa is wavelength (nm) and the ordinate is the relative fluorescence intensity. The equipments used are a UV-Vis spectrophotometer (Hp8453) and a spectrofluorophotometer (FP-6500). The concentrations of compound A, EB and calf thymus DNA are 1 μM, 1 μM and 100 μM respectively.
as §1, with “FIG. 2” for “FIG. 1”, “compound B” for “compound A”, “pH 7.4,” for “pH 7.36,”, “compound B,” for “compound A,”, “100 μM,” for “100 μM”
FIG. 3 is the comparison of fluorescence emission spectra of compound C with commercially available dye EB in the absence and presence of calf thymus DNA respectively in pH 7.24, 10 mM Tris-HCl buffer. The abscissa is wavelength (nm) and the ordinate is the relative fluorescence intensity. […]
Determinations of the fluorescence emission spectra of compound A and commercially available dye EB in the absence and presence of calf thymus DNA respectively in buffer solution
Solutions of compound A in DMSO and EB in water are separately prepared with the concentrations of 1 mM. 3 μL of each solution is diluted with 10 mM Tris-HCl buffer solution (pH 7.36) to 3 mL in a cuvette to determine its fluorescence intensity. Solution of calf thymus DNA in water is prepared, whose concentration is determined as 1.5 mM by the adsorption at 260 nm in spectrophotometry (using the molar absorption coefficients of ε260 nm=6600 M^−1 cm^−1). […]
Determinations of the fluorescence emission spectra of compound B and commercially available dye EB in the absence and presence of calf thymus DNA respectively in buffer solution […]

Measured: fluorescence increase upon binding to calf thymus DNA (I/I0)

CC[n+]1c(-c2ccccc2)c2cc(N)ccc2c2ccc(N)cc21 [EB, ethidium bromide, reference compound]
19 fold: pH 7.24, 10 mM Tris-HCl buffer | pH 7.36, 10 mM Tris-HCl buffer | pH 7.4, 10 mM Tris-HCl buffer
